According to the supplement of paper PMC8256030:
Several values for one entry are separate records, joined by “and”; a condition that tells them apart may be missing. Equal values may be shown once. Where a name gives a salt, the structure may show the parent alone. Some of the results follow. Single values are uncertain here, since repeats match poorly.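 HEK293T cells were given each compound shortly before transfection with a reporter in which red mCherry is followed by the SARS-CoV-2 frameshift element and then GFP in the −1 frame, so GFP appears only after frameshifting.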

How the values were obtained:
[1] = system: HEK293T; assay: percent viability (nuclei count) relative to control; higher = more viable cells; details: 10 µM; 24 h
[2] = system: SARS-CoV-2 -1 PRF reporter mCherry-FSE-GFP(-1); assay: mCherry (red) intensity as percent of control; higher = higher upstream reporter expression; details: 10 µM; 24 h; HEK293T
[3] = system: SARS-CoV-2 -1 PRF reporter mCherry-FSE-GFP(-1); assay: percent effect, decrease of GFP/mCherry ratio (-1 PRF reporter) relative to controls; higher = stronger frameshift inhibition; details: 10 µM; 24 h; HEK293T

C=CCC1(CC(C)C)C(=O)NC(=O)NC1=O [butalbital]
percent viability [1]: 321%
mCherry [2]: 84.3%
percent effect [3]: -1.17%

COP(=S)(OC)Oc1cc(Cl)c(Br)cc1Cl [bromofos]
percent viability [1]: 154%
mCherry [2]: 100%
percent effect [3]: -1.75%

COP(=O)(OC)C(O)C(Cl)(Cl)Cl (stereo unspecified) [metrifonate]
percent viability [1]: 167%
mCherry [2]: 100%
percent effect [3]: -7.98%

CC1Oc2ccccc2CC1N(C)C (stereo unspecified) [trebenzomine]
percent viability [1]: 236%
mCherry [2]: 76%
percent effect [3]: 1.11%

C=CCC1(C2C=CCC2)C(=O)NC(=O)NC1=O (stereo unspecified)
percent viability [1]: 435%
mCherry [2]: 99.4%
percent effect [3]: -4.5%

CNC(C)CC1CCCC1 (stereo unspecified) [cyclopentamine]
percent viability [1]: 154%
mCherry [2]: 91.5%
percent effect [3]: -0.763%

CCCC(C)(COC(N)=O)COC(N)=O [meprobamate]
percent viability [1]: 275%
mCherry [2]: 119%
percent effect [3]: 1.73%

CN(C)[C@@H]1C(=O)C(C(N)=O)=C(O)[C@@]2(O)C(=O)C3=C(O)c4c(O)cccc4[C@@](C)(O)[C@H]3[C@H](O)[C@@H]12
percent viability [1]: 126%
mCherry [2]: 96%
percent effect [3]: -2.92%

CCN(C)C(=O)Oc1cccc([C@H](C)N(C)C)c1 [rivastigmine]
percent viability [1]: 233% and 141%
mCherry [2]: 92.7% and 113%
percent effect [3]: -5.2% and 0.688%

c1ccc(C2(c3ccccc3)CC2C2=NCCN2)cc1 (stereo unspecified) [cibenzoline]
percent viability [1]: 132%
mCherry [2]: 80.1%
percent effect [3]: 1.11%

CN1[C@@H]2CC[C@H]1C[C@@H](OC(=O)C(CO)c1ccccc1)C2 (stereo partly specified)
percent viability [1]: 248%
mCherry [2]: 80.7%
percent effect [3]: -2.9%

CC[C@@H](c1cccc(O)c1)[C@@H](C)CN(C)C [tapentadol]
percent viability [1]: 102% and 84.6%
mCherry [2]: 94.8% and 102%
percent effect [3]: -2.82% and -3.19%

CCOC(=O)C1(c2ccccc2)CCN(CCC(C#N)(c2ccccc2)c2ccccc2)CC1
percent viability [1]: 242%
mCherry [2]: 76.9%
percent effect [3]: -2.62%

C[C@]12CC[C@H]3[C@@H](CCC4=CC(=O)CC[C@@]43C)[C@@H]1CC[C@@H]2O[Si](C)(C)C [silandrone]
percent viability [1]: 106%
mCherry [2]: 86.3%
percent effect [3]: -3.91%

CCC(C(N)=O)N1CCCC1=O (stereo unspecified) [etiracetam]
percent viability [1]: 208%
mCherry [2]: 95%
percent effect [3]: -3.69%

C[N+]12CCC(CC1)C(OC(=O)C(O)(c1ccccc1)c1ccccc1)C2 (stereo unspecified) [clidinium bromide]
percent viability [1]: 120%
mCherry [2]: 103%
percent effect [3]: 1.65%

Cl[C@H]1[C@H](Cl)[C@@H](Cl)[C@@H](Cl)[C@H](Cl)[C@H]1Cl
percent viability [1]: 117%
mCherry [2]: 116%
percent effect [3]: 2.02%

O=[N+]([O-])O[C@H]1CO[C@H]2[C@@H]1OC[C@H]2O[N+](=O)[O-] [isosorbide dinitrate]
percent viability [1]: 110%
mCherry [2]: 110%
percent effect [3]: -3.53%

CN(C)C(=S)SSC(=S)N(C)C [thiram]
percent viability [1]: 141%
mCherry [2]: 73.5%
percent effect [3]: -12.5%

CN1CC(CCN2CC=C(c3ccccc3)CC2)OC1=O (stereo unspecified) [fenpipalone]
percent viability [1]: 192%
mCherry [2]: 81.8%
percent effect [3]: -3.2%

CC[C@@H](CO)NC(=O)[C@@H]1C=C2c3cccc4c3c(cn4C)C[C@H]2N(C)C1 [Sansert]
percent viability [1]: 324%
mCherry [2]: 119%
percent effect [3]: -4.78%

CN1CCN=C(c2ccccc2)c2cc(Cl)ccc21 [medazepam]
percent viability [1]: 314%
mCherry [2]: 89.3%
percent effect [3]: -3.7%

CCN[C@H](C)Cc1cccc(C(F)(F)F)c1 [levofenfluramine]
percent viability [1]: 319%
mCherry [2]: 65.7%
percent effect [3]: 0.371%

Cc1cc(C)cc(C(=O)O[C@H]2C[C@H]3CC[C@@H](C2)N3C)c1 [tropanserin]
percent viability [1]: 99.7%
mCherry [2]: 105%
percent effect [3]: -0.436%

CCC(=O)O[C@](Cc1ccccc1)(c1ccccc1)[C@H](C)CN(C)C [dextropropoxyphene]
percent viability [1]: 333%
mCherry [2]: 95.5%
percent effect [3]: -1.04%

O=C1NCN(c2ccccc2)C12CCN(CC1COc3ccccc3O1)CC2 (stereo unspecified) [spiroxatrine]
percent viability [1]: 146%
mCherry [2]: 93.9%
percent effect [3]: -4.62%

CC(C)C[C@H](CN)CC(=O)O
percent viability [1]: 249%
mCherry [2]: 103%
percent effect [3]: 2.03%

CN(C)[C@@H]1C(=O)C(C(N)=O)=C(O)[C@@]2(O)C(=O)C3=C(O)c4c(O)ccc(Cl)c4[C@@](C)(O)[C@H]3C[C@@H]12 [Chlortetracycline]
percent viability [1]: 242%
mCherry [2]: 79.6%
percent effect [3]: -4.82%

C=C(C)[C@H]1CN[C@H](C(=O)O)[C@H]1CC(=O)O [kainic acid]
percent viability [1]: 127%
mCherry [2]: 87.3%
percent effect [3]: -2.73%

CC[C@@H](C(=O)[C@@H](C)[C@@H](O)[C@H](C)[C@@H]1O[C@@H]([C@@H](CC)C(=O)O)CC[C@@H]1C)[C@H]1O[C@]2(C=C[C@@H](O)[C@]3(CC[C@@](C)([C@H]4CC[C@](O)(CC)[C@H](C)O4)O3)O2)[C@H](C)C[C@@H]1C
percent viability [1]: 130%
mCherry [2]: 98.4%
percent effect [3]: -14.6%

CNCC(=O)c1ccc(O)c(O)c1 [adrenalone]
percent viability [1]: 314%
mCherry [2]: 73.5%
percent effect [3]: -1.25%

CC(C)C[C@H]1C(=O)N2CCC[C@H]2[C@]2(O)O[C@](NC(=O)[C@@H]3C=C4c5cccc6[nH]c(Br)c(c56)C[C@H]4N(C)C3)(C(C)C)C(=O)N12 [Bromocriptine mesylate]
percent viability [1]: 283%
mCherry [2]: 53.6%
percent effect [3]: -1.43%
